This is one part of the list. For some assays here: The source does not settle which construct or isoform was used.
Tests used:
Assay in all cases: protein microarray (ProtoArray v5.0), streptavidin-Alexa Fluor 647
Conditions in all cases: 3'-biotin; 20 mM Tris (pH 7.5), 5 mM MgCl2, 100 mM KCl, 0.1% Tween-20, A/T-rich and random oligonucleotide blockers; temperature not stated; high values mean tight binding
Protein TEX261 (human) = system: Protein TEX261 (human)
Protein reprimo (human) = system: Protein reprimo (human)
Protein shisa-4 (human) = system: Protein shisa-4 (human)
[1] = system: Protein transport protein Sec61 subunit alpha isoform 1 (human)
[2] = system: Protein transport protein Sec61 subunit beta (human)
[3] = system: Protein tyrosine phosphatase receptor type C-associated protein (human)
[4] = system: Putative ATP-dependent Clp protease proteolytic subunit, mitochondrial (human)
[5] = system: Putative adenylate kinase 7 (human)
[6] = system: Putative elongation factor 1-delta-like protein (human)
[7] = system: Putative protein phosphatase inhibitor 2-like protein 3 (human)
[8] = system: Pyrroline-5-carboxylate reductase 1, mitochondrial (human)
[9] = system: Pyruvate kinase isozymes R/L (human)
RAB1B (human) = system: RAB1B (human)
RAB27A (human) = system: RAB27A (human)
RAB33B (human) = system: RAB33B (human)
RAB35 = RAB35 (UniProt Q15286)
RAB3B (human) = system: RAB3B (human)
RAB3IL1 (human) = system: RAB3IL1 (human)
RAB4A (human) = system: RAB4A (human)
RAB9A = target: T1, RAB9A (UniProt P51151)
T1 sequence: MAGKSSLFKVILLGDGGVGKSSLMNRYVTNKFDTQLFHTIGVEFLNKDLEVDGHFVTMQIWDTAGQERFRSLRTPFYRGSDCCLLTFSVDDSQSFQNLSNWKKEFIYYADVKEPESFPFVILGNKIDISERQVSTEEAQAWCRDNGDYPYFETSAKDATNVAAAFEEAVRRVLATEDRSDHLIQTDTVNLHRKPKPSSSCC

The chains behind the UniProt entries cited, without tags or fusion partners. Where a name states a change or a piece, a line headed by the entry shows the natural chain unless it says otherwise.
UniProt Q15286: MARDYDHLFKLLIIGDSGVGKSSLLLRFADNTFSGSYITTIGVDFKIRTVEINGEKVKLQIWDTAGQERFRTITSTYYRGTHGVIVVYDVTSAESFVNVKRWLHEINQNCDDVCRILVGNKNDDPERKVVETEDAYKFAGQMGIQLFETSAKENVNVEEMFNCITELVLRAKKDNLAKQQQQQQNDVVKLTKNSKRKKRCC

Q: How did the binding signal (Protein TEX261 (human)) turn out when “GGGGACAGGGGTATGGGGAGGGG [G4-3 biotinylated (CtG)]” was run?
A: -0.322 z-score

Q: And the binding signal (Protein reprimo (human))?
A: -0.303 z-score

Q: What about the binding signal (Protein shisa-4 (human)) of the same sequence?
A: -0.324 z-score

Q: What about the binding signal [1] of the same sequence?
A: -0.312 z-score

Q: What about the binding signal [2] of the same sequence?
A: 4.18 z-score

Q: And the binding signal [3]?
A: -0.334 z-score

Q: And the binding signal [4]?
A: -0.334 z-score

Q: What about the binding signal [5] of the same sequence?
A: -0.341 z-score

Q: And the binding signal [6]?
A: -0.327 z-score

Q: And the binding signal [7]?
A: -0.338 z-score

Q: And the binding signal [8]?
A: -0.33 z-score

Q: And the binding signal [9]?
A: -0.323 z-score

Q: And the binding signal (RAB1B (human))?
A: -0.33 z-score

Q: And the binding signal (RAB27A (human))?
A: -0.337 z-score

Q: And the binding signal (RAB33B (human))?
A: -0.327 z-score

Q: What about the binding signal (RAB35) of the same sequence?
A: 5.81 z-score

Q: And the binding signal (RAB3B (human))?
A: -0.328 z-score

Q: What about the binding signal (RAB3IL1 (human)) of the same sequence?
A: -0.302 z-score

Q: And the binding signal (RAB4A (human))?
A: -0.306 z-score

Q: And the binding signal (RAB9A)?
A: -0.321 z-score

— PMC5996148
